These are yes or no findings as the source states them, for the method shown. Binding seen in cells or lysates may run through a third protein. Some binding calls cover weakened binding; strength is not graded here.
Biological target: hexahistidine-tagged PSII core antenna protein CP43 (Synechococcus elongatus PCC 7942) (UniProt P11004)
Test: pull-down + cross-linking

binding: binds
Substance: PSII reaction center D2 protein (from UniProt P11005 1-352)

Reference: paper doi:10.1101/2025.01.21.633742
